Measured values taken from patent US5055594A, “Fluorogenic trypotophanase substrates” (Becton, Dickinson and Company, priority 1990, dated 1991).

System: tryptophanase
Test: Reaction of serine-AMC-carbamate with tryptophanase (fluorescence increase)
Format: biochemical
Experimental: To a 1.19×10^-6 M solution of serine-AMC-carbamate dissolved in 100 mM potassium phosphate buffer, pH 8.2 was added 100 μL of a 5.0 mq/mL solution of tryptophanase. Fluorescence increase was measured at 440 nm, with excitation at 365 nm. Starting fluorescence of the serine-AMC-carbamate solution was 26 relative units. After addition of the enzyme, fluorescence at 440 nM increased at a rate of 97 units/minute. […] Fluorescence increase in the absence of enzyme was negligible.

In the case of `Cc1cc(=O)oc2cc(NC(=O)OC[C@H](N)C(=O)O)ccc12` [serine-AMC-carbamate], the “Starting fluorescence of the serine-AMC-carbamate solution” value (1.19×10^-6 M in 100 mM potassium phosphate buffer, pH 8.2, before enzyme, excitation 365 nm, emission 440 nm) is reported as 26 relative units and the “Fluorescence increase in the absence of enzyme” value (1.19×10^-6 M substrate, phosphate buffer pH 8.2, no enzyme) is reported as “negligible”.
